Measured values reported in the supplement of paper PMC7125110.
± gives the standard error. Many of these values have a large error.

B1: glmS ribozyme (parent)
chain: AUAAAAGCGCCAGAACUACAGAAAUGUAGUUGACGAGGAGGAGGUUUAUCGAAUUUUCGGCGGAUGCCUCCAAA

Variants of: B1
Assay: self-cleavage kobs at 2500 uM GlcN6P; higher = faster cleavage; RNA array
Details: with glucosamine-6-phosphate
Outline: (§1)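 kcat and KM were obtained from weighted Michaelis–Menten fits across concentrations of kobs values. Those came from one- or two-exponential decay fits to per-tile medians normalised to baseline and to non-cleaving reference variants. The variants were barcoded ribozymes transcribed in situ by E. coli RNA polymerase on sequenced MiSeq chips and tracked through a hybridised Cy3 probe at 37 °C, with 40 μM to 10 mM glucosamine-6-phosphate in HEPES/KCl/Mg(OAc)2 buffer flowed in.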

Row | Variant | self-cleavage kobs at 2500 uM GlcN6P [s⁻¹]
1 | AUAAAAGCGCCAGAACUACAGAAAUGUAGUUGACGAGGAGGAGGUUUAUCGAAUUUUCGGCGGAUGCAGCCAAA [C68A U69G] | 2.92e-05 ± 1.8e-05
2 | AUAAAAGCGCCAGAACUACAGAAAUGUAGUUGACGAGGAGGAGGUUUAUCGAAUUUUCGGAGGAUUCGUCCAAA [C61A G66U C68G] | 3.57e-05 ± 1.9e-05
3 | AUAAAAGCGCCAGAACUACAGAAAUGUAGUUGACGAGGAGGAGGUUUAUCGAAUUUUCGGCGGUUCCCUCCAAA [A64U G66C] | 2.1e-05 ± 1.5e-05
4 | AUAAAAGCGCCAGAACUACAGAAAUGUAGUUGACGAGGAGGAGGUUUAUCGAAUUUCAGGCGGAUGCCUUCAAA [U57C C58A C70U] | 1.76e-05 ± 1.7e-05
5 | AUAAAAGCGCCAGAACUACAGAAAUGUAGUUGACGAGGAGGAGGUUUAUCGAACUUUCGGUGGAUGCCUCCAAA [U54C C61U] | 2.73e-05 ± 2.6e-05
6 | AUAAAAGCGCCAGAACUACAGAAAUGUAGUUGACGAGGAGGAGGUUUAUCGAAUUUUCAGCGGAUGCCUGCAAA [G59A C70G] | 2.48e-05 ± 1.5e-05
7 | AUAAAAGCGCCAGAACUACAGAAAUGUAGUUGACGAGGAGGAGGUUUAUCGAAUUUGCGGCGGAUGCCACCAAA [U57G U69A] | 3.54e-05 ± 1.9e-05
8 | AUAAAAGCGCCAGAACUACAGAAAUGUAGUUGACGAGGAGGAGGUUUAUCGAAUUUUCGGCCGAUGCAUCCAAA [G62C C68A] | 1.73e-05 ± 1.7e-05
9 | AUAAAAGCGCCAGAACUACAGAAAUGUAGUUGACGAGGAGGAGGUUUAUCGAAUUUGCGGCGGAUGCUUACAAA [U57G C68U C70A] | 2.54e-05 ± 2.1e-05
10 | AUAAAAGCGCCAGAACUACAGAAAUGUAGUUGACGAGGAGGAGGUUUAUCGAAUUUUGGGCGGAUGUCUACAAA [C58G C67U C70A] | 3.5e-05 ± 2.3e-05
11 | AUAAAAGCGCCAGAACUACAGAAAUGUAGUUGACGAGGAGGAGGUUUAUCGCAUUUUCGGCGGAUGCGUCCAAA [A52C C68G] | 3.38e-05 ± 1.9e-05
12 | AUAAAAGCGCCAGAACUACAGAAAUGUAGUUGACGAGGAGGAGGUUUAUCGAAUUGUAGGCGGAGGCCUCCAAA [U56G C58A U65G] | 3.13e-05 ± 1.7e-05
13 | AUAAAAGCGCCAGAACUACAGAAAUGUAGUUGACGAGGAGGAGGUUUAUCGACUUUUCGGCGAAAGCCUACAAA [A53C G63A U65A C70A] | 8e-05 ± 4.2e-05
14 | AUAAAAGCGCCAGAACUACAGAAAUGUAGUUGACGAGGAGGAGGUUUAUCGGAUUUACGGCGGAUUCCUCCAAA [A52G U57A G66U] | 2.98e-05 ± 1.6e-05
15 | AUAAAAGCGCCAGAACUACAGAAAUGUAGUUGACGAGGAGGAGGUUUAUCUAAUUUUCGGCGGAUGACUCUAAA [G51U C67A C71U] | 2.4e-05 ± 1.8e-05
16 | AUAAAAGCGCCAGAACUACAGAAAUGUAGUUGACGAGGAGGAGGUUUAUCGAAUAUUUGGCGGAUGCCUCCAAA [U55A C58U] | 1.85e-05 ± 1.8e-05
17 | AUAAAAGCGCCAGAACUACAGAAAUGUAGUUGACGAGGAGGAGGUUUAUCGAACUUUCGGCGGAUGACUCCAAA [U54C C67A] | 0.00348 ± 0.0018
18 | AUAAAAGCGCCAGAACUACAGAAAUGUAGUUGACGAGGAGGAGGUUUAUCGAAAUUUCGGCGGGUGCCUCCAAA [U54A A64G] | 0.0589 ± 0.04
19 | AUAAAAGCGCCAGAACUACAGAAAUGUAGUUGACGAGGAGGAGGUUUAUCGAAUUUACGGGGGAUGCUUCCAAA [U57A C61G C68U] | 2.14e-05 ± 2.1e-05
20 | AUAAAAGCGCCAGAACUACAGAAAUGUAGUUGACGAGGAGGAGGUUUAUCGAAUUUAAGGCGGAUGCCUCUAAA [U57A C58A C71U] | 4.02e-05 ± 2.6e-05

Variants of: B1
Assay: self-cleavage kobs at 10000 uM GlcN6P; higher = faster cleavage; RNA array
Details: with glucosamine-6-phosphate
Outline: as §1

Row | Variant | self-cleavage kobs at 10000 uM GlcN6P [s⁻¹]
21 | AUAAAAGCGCCAGAACUACAGAAAUGUAGUUGACGAGGGGGACGAUUAUCGAAUUUUCGGCGGAUGCCUCCAAA [A39G G43C U45A] | 2.5e-05 ± 1.9e-05
22 | AUAAAAGCGCCAGAACUACAGAAAUGUAGUUGACGAGGAGGAGGUUUAUCGAAUGUGCGGCGGAUGCCCCAAAA [U55G U57G U69C C71A] | 2.2e-05 ± 1.8e-05
23 | AUAAACGCGCCAGUACUACAGAAAUGUAGUUGACGAGGAGGAGGUUUAUCGAAUUUUCGGCGGAUGCCUCCAAA [A6C A14U] | 1.03e-05 ± 9.9e-06
24 | ACAAAAGCGCUAGAACUACAGAAAUGUAGUUGACGAGGAAGAGGGUUAUCGAAUUUUCGGCGGAUGCCUCCAAA [U2C C11U G40A U45G] | 3.03e-05 ± 2.3e-05
25 | AUAAAAGCGCUAGAACUACAGAAAUGUAGUUCACGAGGAGGAGGUUUAUCGAAUUUUUGGCGGAUGCCUGCAAA [C11U G32C C58U C70G] | 3.14e-05 ± 1.8e-05
26 | AUAAAAGCGCCAGAACUACAGAAAUGUAGUUGACGAGGAGGAGGUUUAUCGAACUUUCGGUGGAUGCCUCCAAA [U54C C61U] | 2.44e-05 ± 2.1e-05
27 | AUAAAUGCGCCAGAACUACAGAAAUGUAGUUGACGAGGAGGAGGUUUAUUGAAUUAUCAGCAGAUGCGUCCAAA [A6U C50U U56A G59A G62A C68G] | 2.31e-05 ± 2e-05
28 | AUAAAAGCGCUAGAACUACAGAAAUGUAGUUGACGGCGAGGAGGUUUAUGGAAUUUUCGGCGGCUGCCUCCAAA [C11U A36G G37C C50G A64C] | 0.0057 ± 0.003
29 | AUAAAAACGCCAGAACUACAGAAAUGUAGUUGACGACGAGGAGGUUUAUCGAAUUUUCGGCGGAUGCCACCAAA [G7A G37C U69A] | 2.46e-05 ± 1.8e-05
30 | AUAAAAGCGCCCGAACUACAGAAAUGUAGUUGACGAGGAGGAGGGUUAUCGAAUUUUCGGCGGUUGCCUCCAAA [A12C U45G A64U] | 3.83e-05 ± 2e-05
31 | AUAAAAGCGCCAGAACUACAGAAAUGUAGGUGACGAGGAGGAGGUUUAUCGAAUUUUCGGCGGAUGCCGCCAAA [U30G U69G] | 1.41e-05 ± 9e-06
32 | AUAAAAGCGCCAGAACUACAGAAAUGUAGUUGACGAGGAGGAGGUUAAUCGAACUUUUGGCGGAUGCCUCCAAA [U47A U54C C58U] | 2.65e-05 ± 1.6e-05
33 | AUAAAAGCGCCUGAACUACAGAAAUGUAGUUGACGAGGAGGAGGGAUAUCGAAUUUUCGGCGGAUGCCUCCAAA [A12U U45G U46A] | 0.00205 ± 0.0011
34 | AUAAAAGCGCCAGAACUACAGAAAUGUACUCGACGAGGAGGAGGUUUAUCGAAUUUUCGGCGGAUGCCUCAAAA [G29C U31C C71A] | 2.7e-05 ± 2.3e-05
35 | AUAAAGGCGCCAGAUCUACAGAAAUGUAGUUGACGAGGAGGAGGUUUAUCGAAUUUUCGGCGGAUACCUCCAAA [A6G A15U G66A] | 2.2e-05 ± 1.8e-05
36 | AUAAAAGCGCCAGAACUACAGAAAUGUAGUUGACGAGGAGGAGGUUUAUCGAAUUUUCGGCGGAAGCCGCCAAA [U65A U69G] | 2.68e-05 ± 2.1e-05
37 | AUAAAAGCGCCAGAACUACAGAAAUGUAGUUGACGAGGAGGAGGGUUGUCGAAUUUUCGGCGGAUGCCUCUAAA [U45G A48G C71U] | 2.55e-05 ± 2.4e-05
38 | AUAAAAGCGCCAGAACUACAGAAAUGUAGCUGUCGAGGAGGAGGUUUAUCGAAUUUUCGGCGGAUGCCUCCAAA [U30C A33U] | 1.58e-05 ± 1.3e-05
39 | AUAAAAGCGCCAGAAUUACAGAAAUGUAGUUGACGAGGAGGAGGUUUAUCGAAUUUACGGCGGAUGCCUGCAAA [C16U U57A C70G] | 2.21e-05 ± 1.8e-05
40 | AUAAAAGCGCCAGAGCUACAGAAAUGUAGUUGACGAGGAGGAUGUUUAUCGACUUUUCGGCGGAUGCCUCCAAA [A15G G43U A53C] | 1.58e-05 ± 1.3e-05

Row | Variant | self-cleavage kobs at 10000 uM GlcN6P [s⁻¹]
41 | AUAAAAGCGCCAGAACUACAGAAAUGUAGUGGACGAGGAGGAGGUUUAUCGAAGUUUCGGCGGAUGGAUGCAAA [U31G U54G C67G C68A C70G] | 3.48e-05 ± 2e-05
42 | AUAAAAGCGUCACAAAUACAGAAAUGUAGUUGACGAGGAGGAGGUUUAUCGAAUUUUCCGCGGAUGCGUUCAAA [C10U G13C C16A G59C C68G C70U] | 2.04e-05 ± 1.6e-05
43 | AUAAAAGCGCCAGAACUACAGAAAUGUAGUUGACGAGGAGGAGGUUUAUCGAAGUUUCGGCGGAUGCAUCCAAA [U54G C68A] | 2.08e-05 ± 1.3e-05
44 | AUAAAAGCGCCAGAACUACAGAAAUGUAGUUCACGAGGAGGAGGGUUAUCGAAUUUUCGGCGGAUGCCUCCAAA [G32C U45G] | 2.11e-05 ± 1.6e-05
45 | AUAAAAGCGCCAGGACUACAGAAAUGUAGUUGACGAGGAGGAGGAUUAUCGAAUUUUCUGCGGAUCCCUCCAAA [A14G U45A G59U G66C] | 2.19e-05 ± 1.9e-05
46 | AUAAAAGCGCCAGAGCUACAGAAAUGUACUGGACGAGGAGGAGGUUUAUCGAAUUGUCGGCGGAUGGCUCCAAA [A15G G29C U31G U56G C67G] | 3.24e-05 ± 2e-05
47 | AUAAAAGCGCCAGAACUACAGAAAUGUACUUGACGAGGAGGAGGUUUAUCGAAUUUUCGGCGGAUGCCACCAAA [G29C U69A] | 2.07e-05 ± 1.9e-05
48 | AUAAAAGCGCCAGAACUACAGAAAUGUAGUUGACGAGGUGGAGGUUUAUCGAAUUUUCGACGGAUGCCUCCAAA [A39U G60A] | 1.76e-05 ± 1.3e-05
49 | AUAAAAGCGCCUGAACUACAGAAAUGUAGUUGACGAAGAGGAGGUUUAUGGAAUUUUCGGCGGAUGACUCCAAA [A12U G37A C50G C67A] | 2.7e-05 ± 2e-05
50 | AUAAAAGUGCUAGAACUACAGAAAUGUAUUUGACGAGGAGGAGGUUUAUCGAAUUUUGGGCGGAUGCUUCCAAA [C8U C11U G29U C58G C68U] | 0.00242 ± 0.0015
51 | AUAAAAGCGCCAGAACUACAGAAAUGUAGUUGACGGGGAGGAGGUUUAUCGAAUGUUCGGCGGAUGCCUCCAAA [A36G U55G] | 1.64e-05 ± 1.4e-05
52 | AUAAAAGCGCCAGGACUACAGAAAUGUAGUUGACGAGGAGGACGUUUAUCGAAUUAUCGGCGGAUGCCUCCAAA [A14G G43C U56A] | 2.06e-05 ± 1.5e-05
53 | AUAAAAGCGCCAGAACUACAGAAAUGUAGUUGACGGGGAGGAGGAUUAUCGAAUUUUCGGCGGAUGCCUCCAAA [A36G U45A] | 2.49e-05 ± 1.6e-05
54 | AUAAAAGCGCCAGAACUACAGAAAUGUAGUUGACGAGGAGGAGGUUUAUCGAAUUUUCGGUGGAUGACUUCAAA [C61U C67A C70U] | 3.03e-05 ± 1.6e-05
55 | AUAAAAGCGCCAGAACUACAGAAAUGUAGUUGACGAGGAGGAUGUUUAUCGAUUUUUCGGCGGGUGCCUCCAAA [G43U A53U A64G] | 2.7e-05 ± 1.4e-05
56 | AUAAAAGCGCCAGAACUACAGAAAUGUAGUUGACGAGGAGGAUGUUAAUCGAAUUUUCGGCGGAUGCCUCCAAA [G43U U47A] | 2.04e-05 ± 1.2e-05
57 | AUAAAAUCGCCAGAACUACAGAAAUGUAGUUGACGAGGAGGAGGUUUAUCGAAUUUUCGGCGGAUGCAUCCAAA [G7U C68A] | 0.000352 ± 0.00028
58 | AUAAAAGCGCCAGAAUUACAGAAAUGUAGUUGACGAGGAGGAGGUUUAUCGAAGUUUGGGCGGAUGGCUCCAAA [C16U U54G C58G C67G] | 2.95e-05 ± 1.7e-05
59 | AUAAAAGCGCCAGAAUUACAGAAAUGUAGUUGACGGGGAGGAGGUUUAUCGAAUUUUCGGCGGAUGCCUCCAAA [C16U A36G] | 1.83e-05 ± 1.6e-05

Some of the entries so far, as a markdown table:

| Row | Variant | self-cleavage kobs at 10000 uM GlcN6P [s⁻¹] |
| --- | --- | --- |
| 41 | AUAAAAGCGCCAGAACUACAGAAAUGUAGUGGACGAGGAGGAGGUUUAUCGAAGUUUCGGCGGAUGGAUGCAAA [U31G U54G C67G C68A C70G] | 3.48e-05 ± 2e-05 |
| 52 | AUAAAAGCGCCAGGACUACAGAAAUGUAGUUGACGAGGAGGACGUUUAUCGAAUUAUCGGCGGAUGCCUCCAAA [A14G G43C U56A] | 2.06e-05 ± 1.5e-05 |
